Source: PMC10930986
These are yes or no findings as the source states them, for the method shown. Binding seen in cells or lysates may run through a third protein. Some results given as binding are weak or reduced against the parent protein; the word gives no strength.

Molecular target: voltage-dependent anion channel 1 (VDAC1) (human (endogenous in MCF-10A, MDA-MB-231, Hs578t)), P21796
Test: co-IP; HKII and GSK3β co-immunoprecipitated with VDAC1; MCF-10A, MDA-MB-231 and Hs578t cells transfected for 48 h with pmOGT-HaloTaq or pHaloTaq (control)
Conditions: remark: other sources report otherwise

B1: hexokinase II, P52789 1-917 (enzyme)
chain: MIASHLLAYFFTELNHDQVQKVDQYLYHMRLSDETLLEISKRFRKEMEKGLGATTHPTAAVKMLPTFVRSTPDGTEHGEFLALDLGGTNFRVLWVKVTDNGLQKVEMENQIYAIPEDIMRGSGTQLFDHIAECLANFMDKLQIKDKKLPLGFTFSFPCHQTKLDESFLVSWTKGFKSSGVEGRDVVALIRKAIQRRGDFDIDIVAVVNDTVGTMMTCGYDDHNCEIGLIVGTGSNACYMEEMRHIDMVEGDEGRMCINMEWGAFGDDGSLNDIRTEFDQEIDMGSLNPGKQLFEKMISGMYMGELVRLILVKMAKEELLFGGKLSPELLNTGRFETKDISDIEGEKDGIRKAREVLMRLGLDPTQEDCVATHRICQIVSTRSASLCAATLAAVLQRIKENKGEERLRSTIGVDGSVYKKHPHFAKRLHKTVRRLVPGCDVRFLRSEDGSGKGAAMVTAVAYRLADQHRARQKTLEHLQLSHDQLLEVKRRMKVEMERGLSKETHASAPVKMLPTYVCATPDGTEKGDFLALDLGGTNFRVLLVRVRNGKWGGVEMHNKIYAIPQEVMHGTGDELFDHIVQCIADFLEYMGMKGVSLPLGFTFSFPCQQNSLDESILLKWTKGFKASGCEGEDVVTLLKEAIHRREEFDLDVVAVVNDTVGTMMTCGFEDPHCEVGLIVGTGSNACYMEEMRNVELVEGEEGRMCVNMEWGAFGDNGCLDDFRTEFDVAVDELSLNPGKQRFEKMISGMYLGEIVRNILIDFTKRGLLFRGRISERLKTRGIFETKFLSQIESDCLALLQVRAILQHLGLESTCDDSIIVKEVCTVVARRAAQLCGAGMAAVVDRIRENRGLDALKVTVGVDGTLYKLHPHFAKVMHETVKDLAPKCDVSFLQSEDGSGKGAALITAVACRIREAGQR
B1 was tested, and the binding was “binds”.
